In patent publication US9802929B2, “Benzo five-membered nitrogen heterocyclic piperidine or piperazine derivatives and preparation methods and pharmaceutical compositions thereof” (Shenyang Haiwang Biotechnology Co., Ltd., priority 2012, dated 2017):
Some of these results come from one statement about several compounds together.

What was measured:
[1] = test system: In Vitro Vascular Smooth Muscle of Rabbits; experiment: Relaxant effect on in vitro rabbit vascular smooth muscle contraction induced by adrenaline (AD); conditions: AD 10^−5 mol/L
Excerpt: Krebs-Henseleit (K—H) physiological solution: NaCl 6.92 (concentration units), KCl 0.35, MgSO4 0.29, KH2PO4 0.16, CaCl2 0.28, NaHCO3 2.1, glucose 2.0 (g/L), pH 7.2.
Preparation of compound II-1 to II-87 solutions: Weigh a certain quality compound samples and dilute to concentrations (10^−10˜10^−3 mol/L) with distilled water, standby.
Cut the chest open quickly after stunning, strip out the descending aorta, then after removing the surrounding connective tissue and adipose tissue (if performed serotonin receptor antagonist experiments, endothelial cells should be removed using a smooth stainless steel bars), cut the vessels into 3-5 mm vascular ring, then pass the steel hook through the blood vessel ring, with one end is fixed to the vent hook and the other end connected to the tension transducer, then place the specimens into bath tube containing 20 mL of nutrient solution, and record tension change by tension transducer. Maintain tube temperature at 37±0.5° C., and pass bubbles (95% O2+5% CO2) into the solution as a speed of 1-2 bubbles/minute. Place an initial load of 1.5 g on the rings, and change nutrient every 20 minutes, then balance for 2 hours and start test after baseline readings are stabilized.
After tension readings are stabilized, record a certain length of tension curve, and add spasmogens agent AD (10^−5 mol/L) to induce contraction; if a maximum contract is achieved, wash the specimens thoroughly, and change K—H solution every 20 minutes, and then balance for 60 minutes; after baseline readings are stabilized, induce contract with spasmogens agent again. When the maximum contract in the later induction is consistent with the former induction, add compound II-1 to II-34 solutions (1×10^−10 to 1×10^−3 mol/L), II-35 to II-87 solutions (1×10^−8-1×10^−3 mol/L), and record the curves. Draw a dose-response curve using maximum relaxation response as 100%, relaxation percentage as ordinate and negative logarithms of the each concentration as abscissa.

[2] = test system: In-Vitro Vascular Smooth Muscle of Rabbits; experiment: Relaxant effect on in vitro rabbit vascular smooth muscle contraction induced by hyperkalemia solution

SMILES	relaxant effect against AD contraction (in words) [1]	relaxant effect against hyperkalemia solution contraction (in words) [2]
Clc1cccc(N2CCN(CCCCn3cnc4ccccc43)CC2)c1 [II-35, 1-(4-(4-(3-chlorophenyl)piperazin-1-yl)butyl)-1H-benzimidazole]	Vascular Smooth Muscle Relaxant Effect	Relaxant Effect
N#Cc1cccc(N2CCN(CCCCn3nnc4ccccc43)CC2)c1 [II-74, 1-(4-(4-(3-cyanophenyl)piperazin-1-yl)butyl)-1H-benzotriazole]	Vascular Smooth Muscle Relaxant Effect	Relaxant Effect
c1ccc2c(c1)nnn2CCCCN1CCN(c2noc3ccccc23)CC1 [II-69, 3-(4-(4-(1H-benzotriazol-1-yl)butyl)piperazine-1-yl)benzisoxazole]	Vascular Smooth Muscle Relaxant Effect	Relaxant Effect
O=Cc1ccc2nnn(CCCN3CCC(c4noc5cc(F)ccc45)CC3)c2c1 [II-18, N-(3-(6-formyl-1H-benzotriazole-1-yl)propyl)-4-(3-(6-fluorobenzoisoxazole))piperidine]	Vascular Smooth Muscle Relaxant Effect	Relaxant Effect
c1coc(C2CCN(CCCCn3cnc4ccccc43)CC2)c1 [II-29, N-(4-(1H-benzimidazol-1-yl)butyl)-4-(2-furyl)piperidine]	Vascular Smooth Muscle Relaxant Effect	Relaxant Effect
c1ccc2c(c1)ncn2CCCCN1CCC(c2ccncc2)CC1 [II-30, N-(4-(1H-benzimidazol-1-yl)butyl)-4-(4-pyridyl)piperidine]	Vascular Smooth Muscle Relaxant Effect	Relaxant Effect
c1cnc(N2CCN(CCCCn3cnc4ccccc43)CC2)nc1 [II-48, 1-(4-(4-(2-pyrimidinyl)piperazin-1-yl)butyl)-1H-benzimidazole]	Vascular Smooth Muscle Relaxant Effect	Relaxant Effect
COc1ccc2c(C3CCN(CCCn4nnc5ccccc54)CC3)noc2c1 [II-13, N-(3-(1H-benzotriazole-1-yl)propyl)-4-(3-(6-methoxy-benzene and isoxazole))piperidine]	Vascular Smooth Muscle Relaxant Effect	Relaxant Effect
Cc1nc2ccccc2n1CCCCN1CCN(c2cccc(C(F)(F)F)c2)CC1 [II-39, 2-methyl-1-(4-(4-(3-trifluoromethylphenyl)piperazin-1-yl)butyl)-1H-benzimidazole]	Vascular Smooth Muscle Relaxant Effect	Relaxant Effect
Fc1ccc2c(C3CCN(CCCCn4nnc5ccccc54)CC3)noc2c1 [II-21, N-(4-(1-benzotriazole)butyl)-4-(3-(6-fluorobenzoisoxazole))piperidine]	Vascular Smooth Muscle Relaxant Effect	Relaxant Effect
N#Cc1ccc2ncn(CCCCN3CCN(c4cccc(C(F)(F)F)c4)CC3)c2c1 [II-60, 6-cyano-1-(4-(4-(3-trifluoromethylphenyl)piperazin-1-yl)butyl)-1H-benzimidazole]	Vascular Smooth Muscle Relaxant Effect	Relaxant Effect
COc1ccc2nnn(CCCN3CCC(c4noc5ccccc45)CC3)c2c1 [II-19, N-(3-(6-methoxybenzotriazolyl)propyl)-4-(3-benzoisoxazole)piperidine]	Vascular Smooth Muscle Relaxant Effect	Relaxant Effect
c1ccc2c(N3CCN(CCCCn4nnc5ccccc54)CC3)cccc2c1 [II-79, 1-(4-(4-(1-naphthyl)piperazin-1-yl)butyl)-1H-benzotriazole]	Vascular Smooth Muscle Relaxant Effect	Relaxant Effect
N#Cc1cccc(N2CCN(CCCCn3cnc4ccccc43)CC2)c1 [II-44, 1-(4-(4-(3-cyanophenyl)piperazin-1-yl)butyl)-1H-benzimidazole]	Vascular Smooth Muscle Relaxant Effect	Relaxant Effect
c1ccc2c(c1)ncn2CCCCN1CCN(c2ccncc2)CC1 [II-47, 1-(4-(4-(4-pyridyl)piperazin-1-yl)butyl)-1H-benzimidazole]	Vascular Smooth Muscle Relaxant Effect	Relaxant Effect
Fc1cccc(N2CCN(CCCCn3nnc4ccccc43)CC2)c1 [II-64, 1-(4-(4-(3-fluorophenyl)piperazin-1-yl)butyl)-1H-benzotriazole]	Vascular Smooth Muscle Relaxant Effect	Relaxant Effect
N#Cc1ccc2nnn(CCCCN3CCN(c4cccc(C(F)(F)F)c4)CC3)c2c1 [II-84, 6-cyano-1-(4-(4-(3-trifluoromethylphenyl)piperazin-1-yl)butyl)-1H-benzotriazole]	Vascular Smooth Muscle Relaxant Effect	Relaxant Effect
Cc1cc2nnn(CCCCN3CCN(c4cccc(C(F)(F)F)c4)CC3)c2cc1C [II-67, 5,6-dimethyl-1-(4-(4-(3-trifluoromethylphenyl)piperazin-1-yl)butyl)-1H-benzotriazole]	Vascular Smooth Muscle Relaxant Effect	Relaxant Effect
c1ccc2nc(N3CCN(CCCCn4cnc5ccccc54)CC3)cnc2c1 [II-51, 1-(4-(4-(2-quinoxalinyl)piperazin-1-yl)butyl)-1H-benzimidazole]	Vascular Smooth Muscle Relaxant Effect	Relaxant Effect
c1ccc(N2CCN(CCCn3cnc4ccccc43)CC2)cc1 [II-41, 1-(3-(4-phenyl-piperazin-1-yl)propyl)-1H-benzimidazole]	Vascular Smooth Muscle Relaxant Effect	Relaxant Effect
Fc1ccc2c(C3CCN(CCCn4nnc5ccc(Cl)cc54)CC3)noc2c1 [II-15, N-(3-(6-chloro-1H-benzotriazole-1-yl)propyl)-4-(3-(6-fluorobenzoisoxazole))piperidine]	Vascular Smooth Muscle Relaxant Effect	Relaxant Effect
FC(F)(F)c1cccc(N2CCN(CCCCn3nnc4ccc(Cl)cc43)CC2)c1 [II-83, 6-chloro-1-(4-(4-(3-trifluoromethylphenyl)piperazin-1-yl)butyl)-1H-benzotriazole]	Vascular Smooth Muscle Relaxant Effect	Relaxant Effect
FC(F)(F)c1cccc(C2CCN(CCCCn3cnc4ccccc43)CC2)c1 [Compound II-3, N-(4-(1H-benzimidazol-1-yl)butyl)-4-(3-trifluoromethylphenyl)piperidine]	Vascular Smooth Muscle Relaxant Effect	Relaxant Effect
FC(F)(F)c1cccc(N2CCN(CCCCCn3nnc4ccccc43)CC2)c1 [II-75, 1-(5-(4-(3-trifluoromethylphenyl)piperazin-1-yl)pentyl)-1H-benzotriazole]	Vascular Smooth Muscle Relaxant Effect	Relaxant Effect
